Reference: doi:10.1101/2025.06.04.657812

Assays:
[1] = molecular target: T1, LSH_K254A (human) (UniProt Q9NRZ9); assay: EMSA; details: 0-20 uM LSH, residues 1-838
T1 sequence (looked up): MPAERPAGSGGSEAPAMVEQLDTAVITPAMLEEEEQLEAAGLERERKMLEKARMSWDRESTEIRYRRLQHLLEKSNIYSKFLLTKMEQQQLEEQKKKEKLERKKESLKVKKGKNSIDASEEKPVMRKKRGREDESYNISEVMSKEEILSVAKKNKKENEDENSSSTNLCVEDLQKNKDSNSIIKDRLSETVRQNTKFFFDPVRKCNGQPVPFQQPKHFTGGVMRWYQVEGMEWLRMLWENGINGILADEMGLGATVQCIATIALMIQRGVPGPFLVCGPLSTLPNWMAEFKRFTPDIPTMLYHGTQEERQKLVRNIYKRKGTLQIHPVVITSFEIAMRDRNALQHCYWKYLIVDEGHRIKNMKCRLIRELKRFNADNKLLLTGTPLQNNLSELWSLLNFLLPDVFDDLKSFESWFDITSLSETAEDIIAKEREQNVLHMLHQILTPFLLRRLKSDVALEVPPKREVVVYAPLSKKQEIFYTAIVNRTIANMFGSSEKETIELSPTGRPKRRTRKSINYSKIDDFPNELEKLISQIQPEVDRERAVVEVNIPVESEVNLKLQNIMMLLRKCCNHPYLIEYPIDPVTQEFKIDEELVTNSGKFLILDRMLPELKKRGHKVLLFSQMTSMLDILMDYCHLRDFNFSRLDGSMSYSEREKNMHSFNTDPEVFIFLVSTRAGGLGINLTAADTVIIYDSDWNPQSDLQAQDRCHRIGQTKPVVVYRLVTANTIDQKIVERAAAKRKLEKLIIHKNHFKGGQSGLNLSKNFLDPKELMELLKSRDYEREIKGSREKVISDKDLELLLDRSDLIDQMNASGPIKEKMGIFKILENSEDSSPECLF

[2] = molecular target: T2, LSH_WT (human) (UniProt Q9NRZ9); assay: EMSA; details: 0-20 uM LSH, residues 1-838
T2 sequence (looked up): T1 sequence (looked up) with A254K

GTCACTTGATAAGAGGTCATTTGAATTCATGGCTTAGAGCTTAATTGCTGAATCTGGTGCTGGGATCCAACATGTTTTAAATATGCAATG / GCACCAGAUUCAGCAAUUAAGCUCUAAGCC [RNA:DNA hybrid without RNA overhang (DNA2/RNA2)]
binding result ([1]; DNA:RNA hybrid): binds | binding result ([2]; DNA:RNA hybrid): binds

CATTGCATATTTAAAACATGTTGGATCCCACGTTGCATGCTGATAGCCTACTAGAGCTGTATGAATTCAAATGACCTCTTATCAAGTGAC / GTCACTTGATAAGAGGTCATTTGAATTCATGGCTTAGAGCTTAATTGCTGAATCTGGTGCTGGGATCCAACATGTTTTAAATATGCAATG / GCACCAGAUUCAGCAAUUAAGCUCUAAGCC [R-loop without RNA overhang (DNA1/DNA2/RNA2)]
binding result [1]: binds | binding result [2]: binds

CATTGCATATTTAAAACATGTTGGATCCCACGTTGCATGCTGATAGCCTACTAGAGCTGTATGAATTCAAATGACCTCTTATCAAGTGAC / GTCACTTGATAAGAGGTCATTTGAATTCATGGCTTAGAGCTTAATTGCTGAATCTGGTGCTGGGATCCAACATGTTTTAAATATGCAATG / GUGCUACGAUGCUAGUCGGGGAGUGCACCAGAUUCAGCAAUUAAGCUCUAAGCC [R-loop with 5'-RNA overhang (DNA1/DNA2/RNA1)]
binding result [1]: binds | binding result [2]: binds

GTCACTTGATAAGAGGTCATTTGAATTCATGGCTTAGAGCTTAATTGCTGAATCTGGTGCTGGGATCCAACATGTTTTAAATATGCAATG / GUGCUACGAUGCUAGUCGGGGAGUGCACCAGAUUCAGCAAUUAAGCUCUAAGCC [RNA:DNA hybrid with 5'-RNA overhang (DNA2/RNA1)]
binding result ([1]; DNA:RNA hybrid): binds | binding result ([2]; DNA:RNA hybrid): binds

Changes are numbered by the printed parent chain. For at least one entry, the source does not settle the construct or the ends of the probe. For some assays here: At least one verdict was read from the data and is not stated in words by the source. Where a protein sequence is shown, tags need not be part of it.
